# Laboratory results from PubChem BioAssay AID540275 (National Center for Advancing Translational Sciences (NCATS), 2011).
# The chains behind the UniProt entries cited, without tags or fusion partners.
# UniProt Q8NER1, whole entry, looked up: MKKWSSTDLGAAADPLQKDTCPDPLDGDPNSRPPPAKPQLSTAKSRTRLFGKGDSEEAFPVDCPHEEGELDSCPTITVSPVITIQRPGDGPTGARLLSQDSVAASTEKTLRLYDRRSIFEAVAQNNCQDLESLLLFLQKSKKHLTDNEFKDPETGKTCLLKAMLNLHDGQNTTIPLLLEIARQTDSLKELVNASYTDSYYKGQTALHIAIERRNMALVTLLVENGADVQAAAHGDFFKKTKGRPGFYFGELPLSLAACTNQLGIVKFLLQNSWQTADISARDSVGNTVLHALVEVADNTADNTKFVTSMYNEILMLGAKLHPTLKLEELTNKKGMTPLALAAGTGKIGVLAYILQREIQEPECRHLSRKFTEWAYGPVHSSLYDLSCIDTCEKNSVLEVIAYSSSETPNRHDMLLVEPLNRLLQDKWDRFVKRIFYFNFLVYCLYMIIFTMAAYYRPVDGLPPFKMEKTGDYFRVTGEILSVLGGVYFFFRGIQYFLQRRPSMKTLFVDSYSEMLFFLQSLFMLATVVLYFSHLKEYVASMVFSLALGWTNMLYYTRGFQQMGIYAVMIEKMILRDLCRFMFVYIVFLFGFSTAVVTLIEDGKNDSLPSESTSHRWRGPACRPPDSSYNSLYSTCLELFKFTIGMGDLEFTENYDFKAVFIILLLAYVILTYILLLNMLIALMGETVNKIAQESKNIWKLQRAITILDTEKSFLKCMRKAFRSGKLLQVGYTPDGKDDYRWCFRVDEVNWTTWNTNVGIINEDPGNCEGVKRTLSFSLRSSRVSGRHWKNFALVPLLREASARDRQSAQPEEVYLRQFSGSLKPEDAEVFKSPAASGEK
# Screen size: about 320,000 compounds; about 620 (0.19%) were called active. Inconclusive means that the source gave no clear call. Such entries were picked first, then a sample of the others. Cut-off read from the data, not from the text of the source: active = activation above about 80%; inconclusive = between about 30% and that limit; inactive = weaker than that.
# Target: Transient receptor potential cation channel subfamily V member 1 (Homo sapiens) (UniProt Q8NER1)
# Test: HTS Assay for Compounds that Act as Agonists of the Vanilloid Receptor 1; note: 0% is about no effect
# Conditions: TRPV1-expressing cells, Fluo-8 calcium influx, agonist mode; at 8.33 µM, hits give high values
# In short: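 TRPV1-expressing cells were cultured overnight at 35.5C and loaded with Fluo-8 calcium dye for 40 to 90 min at room temperature. After a 10 s baseline, compound was added and calcium influx was read kinetically for 3 min (ex 480/em 520 nm).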
row,Structure (SMILES),activation
1,COc1ccc(CNC(=S)Nc2ccc(F)c(Cl)c2)cc1OC,inconclusive: 69.3%
2,CSc1c[n+]2c(n1C)CCC2,inactive: -0.519%
3,COc1ccc([C@H]2CC(=O)C=C(c3cccc(C(F)(F)F)c3)C2)cc1,inconclusive: 52.8%
4,CCN(CC)C(=O)c1sc(NC(=O)Cc2ccc(OC)cc2)c(C#N)c1C,inconclusive: 32.7%
5,COc1ccc(C)cc1NC(=O)CSCc1ccccc1C,inconclusive: 33.7%
6,NC(=S)N/N=C/c1c[nH]c2ccc(OCc3ccccc3)cc12,inactive: -1.24%
7,Cc1cnn(C(=S)NCc2ccc(Cl)cc2)c1,inconclusive: 52.7%
8,CC(C)(C)C(=O)Cn1nnc(-c2ccc(C(F)(F)F)cc2)n1,inconclusive: 31.7%
9,O=S(=O)(Nc1ccc2c(c1)OCO2)c1cccc(Br)c1,inactive: 8.7%
10,O=C(COC(=O)C1(c2ccccc2F)CCCC1)NCc1cccs1,inconclusive: 32.7%
11,Cc1c(Cl)cccc1NC(=O)NNC(=O)CCc1ccccc1,inconclusive: 33.7%
12,O=C(NCCc1ccccc1)c1cnc(Cl)c(Cl)c1,inconclusive: 65.4%
13,CCC1=C(OC(=O)N(CC)CC)N2C(=O)OC(=NCC3CC3)[C@]2(Cc2ccccc2)[C@H]2C1=CC[C@H]1C(=O)N(c3ccccc3)C(=O)[C@H]12,inconclusive: 50.6%
14,O=C(c1nc2ccccc2s1)N1CCN(c2ccccn2)CC1,inconclusive: 33.7%
15,COc1cccc(NC(=O)CCN2CCN(c3ccccc3F)CC2)c1,inconclusive: 58.4%
16,Cc1nc(-c2ccccn2)sc1C(=O)Nc1ccc(F)cc1F,inconclusive: 54.7%
17,COCCNC(=O)c1cc(-c2ccc(Cl)c(Cl)c2)on1,inconclusive: 48.6%
18,CCCOc1ccc(OCCOCCNCc2ccccc2)cc1,inactive: 0.628%
19,Cc1cc(C)c(C)c(C(=O)CSc2nnc(-c3ccc4[nH]c(C)c(C)c4c3)o2)c1C,inactive: -0.384%

row,Structure (SMILES),activation
1,CC1(C)NC(=O)N(CCCCOc2ccc3ccccc3c2Cl)C1=O,inconclusive: 58.6%
2,COc1cc(OC)cc(C(=O)Nc2ccc3c(c2)COC3=O)c1,inconclusive: 30.9%
3,O=C(Nc1cc(Cl)cc(Cl)c1)c1ccno1,inactive: 2.32%
4,Nc1cc(C(=O)OCC(=O)NCc2ccc(F)cc2)ccc1Cl,inconclusive: 35.5%
5,Cc1c(C(=O)N2CCN(C(=O)c3ccco3)CC2)oc2c(Cl)cccc12,inconclusive: 33.5%
6,CCCOC(=O)c1ccc(NC(=O)c2ccccc2OC)cc1,inconclusive: 49.5%
7,COc1cccc(NC(=O)CSc2nc3ccsc3c(=O)n2-c2ccc(C(=O)O)cc2)c1,inactive: 1.45%
8,CCc1cccc(C)c1NC(=S)NCC1CCN(c2ccc(OC)cc2)C1 (configuration not stated),inactive: 9.73%
9,CSc1nnc(-c2cnccn2)n1C,inactive: -0.561%
10,CC(=O)c1ccc(NC(=O)CC23CC4CC(C2)CC(n2nnc(C)n2)(C4)C3)cc1,inconclusive: 39.1%
11,CCOC(=O)N1CCN(S(=O)(=O)c2ccc(OC)c(C(=O)N3CCCCC3)c2)CC1,inactive: 2.91%
12,N#C/C(=C/c1cn(-c2ccccc2)nc1-c1cccc(OCc2ccc(F)cc2)c1)C(=O)NCCCn1ccnc1,inconclusive: 43.7%
13,Cc1ccc(/C=C(\NC(=O)c2ccc(C)cc2)C(=O)NCCCn2ccnc2)cc1,inactive: -1.38%
14,Cc1cc(CN(C)C)c(O)c(C2(C)CCCCC2)c1,inactive: 2.69%
15,COc1ccccc1N(C)S(=O)(=O)c1ccc(C(=O)Nc2ccc(C)cc2C)cc1,inconclusive: 38.8%
16,O=C(Nc1ccccc1N1CCN(C(=O)c2ccc(Cl)cc2)CC1)c1cccc(F)c1,inactive: 24.9%
17,CC1CCCC(C)N1c1nnc(NC(=O)Cn2c(=O)oc3ccccc32)s1 (configuration not stated),inactive: -1.16%
18,COc1ccc(NC(=O)c2ccc(S(=O)(=O)C(F)F)cc2)c(OC)c1,inconclusive: 43.9%
19,N/C(=N\OC(=O)c1ccc(F)cc1)c1nonc1N,inconclusive: 43.9%

row,Structure (SMILES),activation
1,CCN(CC)S(=O)(=O)c1cc(C(=O)Nc2cc(C)[nH]n2)ccc1Cl,inconclusive: 30.9%
2,COc1ccc(-n2cnnc2SCC(=O)NC2CCCc3ccccc32)cc1 (configuration not stated),inactive: 2.38%
3,Cc1cc(NC(=O)c2cc3cccc([N+](=O)[O-])c3[nH]2)ccc1F,inconclusive: 37.4%
4,C/C(=N\Nc1nc(C(C)(C)C)cs1)c1ccc(O)cc1,inactive: 5.22%
5,CC1CCCCC12NC(=O)N(CC(=O)N1CCN(S(=O)(=O)/C=C/c3ccccc3)CC1)C2=O (configuration not stated),inactive: -0.801%
6,COc1ccc(OCC(O)CN2CCN(c3ccc(OC)cc3)CC2)cc1 (configuration not stated),inactive: -0.868%
7,FC(F)(F)c1cccc(NC(=S)NC(c2ccccc2)c2ccccc2)c1,inconclusive: 40.6%
8,CCC(C)c1ccc(NC(=O)NCc2cccnc2)cc1 (configuration not stated),inconclusive: 60.3%
9,C/C(=N/NC(=O)C(=O)N/N=C(/C)c1ccccc1)c1ccccc1,inactive: -2.38%
10,Cc1ccc(C(=O)Nc2ccc(S(=O)(=O)N3CCc4ccccc4C3)cc2)o1,inconclusive: 39.7%
11,O=C(CSc1nc2ccccc2s1)Nc1ccc2c(c1)OCO2,inconclusive: 33.5%
12,O=S(=O)(c1ccccc1)c1cnc2ccccc2c1,inconclusive: 49%
13,Cc1noc(C(=O)N2CCN(c3ccc(F)cc3)CC2)c1Cl,inconclusive: 63.1%
14,COc1ccc(CNC(=O)C23CN(Cc4ccccc4)CC2C(c2ccc([N+](=O)[O-])cc2)=NO3)cc1 (configuration not stated),inactive: 5.61%
15,CCn1nnnc1SCC(=O)N1c2ccccc2CCc2ccccc21,inconclusive: 30.6%
16,C[C@@H]1CC=C[C@H]2[C@H]1C(=O)N(Cc1ccccc1)[C@H]2c1ccc(F)c(Br)c1,inconclusive: 38.3%
17,CC(C)(C)C(=O)NC(=S)NCCc1ccccc1,inconclusive: 34.5%
18,C=CCn1c(-c2c[nH]c3ccccc23)n[nH]c1=S,inactive: -2.07%
19,COc1ccccc1C(=O)NCCc1c(C)[nH]c2c(C)ccc(F)c12,inconclusive: 31.9%

# 3 entries from above, sorted by molar mass, high to low.
row,Structure (SMILES),activation
13,CCC1=C(OC(=O)N(CC)CC)N2C(=O)OC(=NCC3CC3)[C@]2(Cc2ccccc2)[C@H]2C1=CC[C@H]1C(=O)N(c3ccccc3)C(=O)[C@H]12,inconclusive: 50.6%
12,N#C/C(=C/c1cn(-c2ccccc2)nc1-c1cccc(OCc2ccc(F)cc2)c1)C(=O)NCCCn1ccnc1,inconclusive: 43.7%
15,CCn1nnnc1SCC(=O)N1c2ccccc2CCc2ccccc21,inconclusive: 30.6%
